According to US20250276009A1, “Therapeutic use of hydrogen sulfide in frostbite injury” ([(The)] London Health Sciences Centre Research Inc., priority 2024, published 2025):

Test system: KI-67
Experiment: Immunofluorescence staining of frostbite wound tissue, day 15: proliferation marker
Assay type: in vivo, C57BL/6 mice (Mus musculus)

For `O=S([O-])([O-])=S.[Na+].[Na+]` [STS, sodium thiosulfate], the KI-67 expression (150 μM STS in Aveeno vs Aveeno without STS) was “markedly upregulated”, the KI-67 expression (150 μM STS in Dove vs Dove without STS) was “did not change KI-67 expression significantly” and the KI-67 expression (150 μM STS in Neutrogena vs Neutrogena without STS) was “did not change KI-67 expression significantly”. The KI-67 expression (150 μM STS in Nivea vs Nivea without STS) was “markedly upregulated”.
